Test results taken from PubChem BioAssay (EPA / NIEHS).
Several values for one entry are separate records, joined by “and”; a condition that tells them apart may be missing. Identical values can stand only once. Inconclusive means that the source gave no clear call. Such entries were picked first, then a sample of the others. Where the call is inconclusive, the potency comes from a doubtful curve fit. Activity calls are given as the source filed them. Rule for the calls: active = hit-call score of the fitted dose curve at least 0.9, where 1 is the maximum; inconclusive = response in the unintended direction; inactive = score below 0.9.

Amino acid sequences for entries named in this document (tags omitted). A change or cut given only in a name is not applied to a line headed by its entry.
UniProt P10275: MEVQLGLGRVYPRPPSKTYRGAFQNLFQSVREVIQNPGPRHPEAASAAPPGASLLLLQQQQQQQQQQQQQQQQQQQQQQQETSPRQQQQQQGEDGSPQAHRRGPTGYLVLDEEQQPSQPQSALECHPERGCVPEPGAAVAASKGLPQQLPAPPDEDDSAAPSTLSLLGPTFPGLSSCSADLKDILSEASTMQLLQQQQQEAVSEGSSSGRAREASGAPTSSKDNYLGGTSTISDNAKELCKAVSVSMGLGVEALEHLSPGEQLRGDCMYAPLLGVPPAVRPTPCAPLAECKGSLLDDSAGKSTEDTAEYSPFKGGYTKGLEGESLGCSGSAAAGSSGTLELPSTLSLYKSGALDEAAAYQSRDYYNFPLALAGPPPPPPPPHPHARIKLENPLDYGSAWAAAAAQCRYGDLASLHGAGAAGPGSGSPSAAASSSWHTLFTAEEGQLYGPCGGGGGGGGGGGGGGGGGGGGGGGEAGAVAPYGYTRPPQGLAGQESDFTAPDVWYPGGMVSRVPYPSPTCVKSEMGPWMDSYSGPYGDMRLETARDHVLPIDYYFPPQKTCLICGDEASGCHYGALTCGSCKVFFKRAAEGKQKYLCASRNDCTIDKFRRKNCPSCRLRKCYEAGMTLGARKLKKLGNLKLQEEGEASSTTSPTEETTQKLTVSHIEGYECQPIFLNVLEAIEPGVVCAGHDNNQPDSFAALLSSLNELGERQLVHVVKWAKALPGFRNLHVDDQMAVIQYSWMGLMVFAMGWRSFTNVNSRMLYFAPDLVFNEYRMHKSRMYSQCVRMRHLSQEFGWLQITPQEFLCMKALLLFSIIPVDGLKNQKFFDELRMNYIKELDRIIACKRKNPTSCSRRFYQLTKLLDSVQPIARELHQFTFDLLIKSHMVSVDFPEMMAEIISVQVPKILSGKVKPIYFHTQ

What follows are compounds tested against Androgen receptor (Homo sapiens) (UniProt P10275) (assay: ATG_AR_TRANS: Attagene TRANS-FACTORIAL HepG2 Assay for human Androgen Receptor (AR) (AID 2282973)). Details: HepG2 Attagene TRANS-FACTORIAL AR reporter transcription.
Procedure: ATG_TRANS is a cell-based, multiplexed-readout assay that uses HepG2, a human liver cell line, with measurements taken at 24 hours after chemical dosing in a 24-well plate.ATG_AR_TRANS is one of 30 assay component(s) measured or calculated from the ATG_TRANS assay. It is designed to make measurements of mRNA induction, a form of inducible reporter, as detected with fluorescence intensity signals by Reverse transcription polymerase chain reaction (RT-PCR) and Capillary electrophoresis technology.Data from the assay component ATG_AR_TRANS was analyzed into 1 assay endpoint. This assay endpoint, ATG_AR_TRANS, was analyzed in the positive analysis fitting direction relative to DMSO as the negative control and baseline of activity. Using a type of inducible reporter, measures of mRNA for gain-of-signal activity can be used to understand the reporter gene at the transcription factor-level as they relate to the gene AR. Furthermore, this assay endpoint can be referred to as a primary readout, because this assay has produced multiple assay endpoints where this one serves a reporter gene function. To generalize the intended target to other relatable targets, this assay endpoint is annotated to the nuclear receptor intended target family, where the subfamily is steroidal.
Human liver HepG2 cells are transiently transfected with multiple reporter transcription units (MRTUs) in 6-well plates using FuGene 6 reagent (Roche; 3 ml FuGene/1 mg DNA). The MRTU constructs are regulated by a cis-regulating element (promoter). […] A major difference between the CIS and TRANS system is that in CIS activities of endogenous TFs are measured, whereas the TRANS assay evaluates changes in activities of exogenous, chimeric NR-Gal4 proteins. […] At the end of 24 hour incubation, total RNA was isolated using TriZol reagent (Invitrogen). The isolated RNA is then reverse-transcribed using oligo(dT) primer and Mo-MLV reverse transcriptase (Invitrogen) with DNAse I (Ambion) treatment for 30 min. The one-tenth of the produced cDNA was amplified by PCR using Taq DNA polymerase (Invitrogen) and two reporter sequence-specific primers. The PCR products were fluorescently labeled by primer extension with 6-arboxyfluorescein (6-FAM) 5'-labeled reporter sequence-specific primer (2 min at 95 C, 20 s at 68 C and 10 min at 72 C) and these products were digested with 5U of HpaI (New England Biolabs) for 2h at 37 C. The fragments were purified using Qiaquick PCR columns (Qiagen), analyzed on an ABI 3130xL genetic analyzer (Applied Biosystems) with peak positions identified by using a set of X-rhodamine (ROX)-labeled MapMarker1000 molecular weight standards (BioVentures). The raw capillary electrophoresis data was processed using Attagraph software (Attagene).
For CCC(=O)O[C@H]1CC[C@H]2[C@@H]3CCC4=CC(=O)CC[C@]4(C)[C@H]3CC[C@]12C, the AC50 was active: 632 nM [middle of 4 runs].
In the case of O=C1C2(Cl)C3(Cl)C4(Cl)C(Cl)(Cl)C5(Cl)C3(Cl)C1(Cl)C5(Cl)C24Cl (stereo not given), the AC50 is reported as inconclusive: 10.7 µM.
With CCOC(=O)COc1cc(-c2nn(C)c(OC(F)F)c2Cl)c(F)cc1Cl the AC50 was inconclusive: 50 µM.
With COc1ncc(F)c2nc(S(=O)(=O)Nc3c(F)cccc3F)nn12 the AC50 was inconclusive: 4.57 µM.
With ClC1(Cl)C2(Cl)C3(Cl)C4(Cl)C(Cl)(Cl)C5(Cl)C3(Cl)C1(Cl)C5(Cl)C24Cl (stereo not given) the AC50 was inconclusive: 100 µM.
In the case of CC(C)(C)N(NC(=O)c1ccc(Cl)cc1)C(=O)c1ccccc1, the AC50 is reported as inconclusive: 99.5 µM.
With CCCSP(=O)(OCC)SCCC the AC50 was inconclusive: 50 µM.
For CCCN(CCC)c1c([N+](=O)[O-])cc(C(F)(F)F)cc1[N+](=O)[O-], the AC50 was inconclusive: 89.6 µM.
Cc1[nH]c(=O)n(C(C)(C)C)c(=O)c1Cl was tested, and the outcome was “inactive”.
CC(=O)[O][Hg][c]1ccccc1 was tested, and the AC50 was inconclusive: 11.1 µM.
In the case of CCC(=O)c1ccccc1, the AC50 is reported as inconclusive: 23.9 µM.
C[As+](C)(C)CC(=O)[O-] was tested, and the AC50 was inconclusive: 100 µM.
In the case of Cc1cc(Cl)ccc1OCC(=O)O, the outcome is reported as “inactive”.
In the case of C=CC(F)(C(F)(F)F)C(F)(F)C(F)(F)F (stereo not given), the AC50 is reported as inconclusive: 150 µM.
In the case of [N-]=[N+]=[N-], the AC50 is reported as inconclusive: 0.374 µM.
With C=COCCCl the AC50 was inconclusive: 100 µM.
For Cc1ccc(C(=O)Cl)cc1, the AC50 was inconclusive: 100 µM.
For Cc1ccc(N(SC(F)(Cl)Cl)S(=O)(=O)N(C)C)cc1, the AC50 was inconclusive: 58.5 µM.
CC(=Cc1ccccc1)[N+](=O)[O-] was tested, and the AC50 was inconclusive: 1.51 µM.
O=C1C(Cl)=C(Cl)C(=O)C(Cl)=C1Cl was tested, and the outcome was “inactive”.
For OCC(F)(F)OC(F)(F)C(F)(F)OC(F)(F)C(F)(F)OC(F)(F)CO, the outcome was “inactive”.
For O=[N+]([O-])c1cc(Cl)ccc1Cl, the AC50 was inconclusive: 184 µM.
With CC(O)C(F)(F)C(F)(F)F (stereo not given) the AC50 was inconclusive: 150 µM.
With C=CC(=O)OCCCCCC(C)C the outcome was “inactive”.
For [Cl][Sn]([c]1ccccc1)([c]1ccccc1)[c]1ccccc1, the outcome was “inactive”.
For CC(C)CBr, the outcome was “inactive”.
For O=C(O)C(F)(OC(F)(F)C(F)(F)C(F)(F)F)C(F)(F)F (stereo not given), the AC50 was inconclusive: 150 µM.
In the case of CC(=O)C(F)(F)C(F)(F)F, the outcome is reported as “inactive”.
In the case of O=C(N[C@H]1CN2CCC1CC2)c1cc2ccoc2cn1, the AC50 is reported as inconclusive: 0.00745 µM.
With CCOC(=O)c1ccccc1S(=O)(=O)NC(=O)Nc1nc(Cl)cc(OC)n1 the outcome was “inactive”.
FC(F)OCC(F)(F)C(F)(F)F was tested, and the AC50 was inconclusive: 150 µM.
In the case of ClC1=C(Cl)[C@]2(Cl)[C@@H]3[C@@H](Cl)[C@@H](Cl)C[C@@H]3[C@@]1(Cl)C2(Cl)Cl, the AC50 is reported as inconclusive: 85 µM.
With CCN1CCC2(CC1)COc1cc3c(cc12)N(C(=O)c1ccc(-c2ccc(-c4nnc(C)o4)cc2C)cc1)CC3 the AC50 was inconclusive: 0.00179 µM.
For CCNc1nc(Cl)nc(NC(C)(C)C)n1, the outcome was “inactive”.
